Laboratory results as given in PMC10235086.
No constants are given. Whether binding was seen depends on the method and setting. In cells and extracts the contact can be indirect. A yes stands for co-enrichment or nearness to the bait. Other partners may have been found. For some assays here: A no says only that the protein was not detected with the bait. Values belong to the binder of their own block, whether it stands above or below them.

Columns and labels:
[1] = biological target: T1, Rat1-ProteinA (S. cerevisiae (endogenous in yeast W303-1A)) (UniProt Q02792); experiment: affinity purification with mass spectrometry; Rat1 endogenously tagged at its C-terminus with Protein A; cells grown in YPDA; lysate on IgG-agarose beads as for Rio1; on-bead digestion, LC-MS/MS; untagged wild-type strain as negative control; three independent purifications
T1 sequence: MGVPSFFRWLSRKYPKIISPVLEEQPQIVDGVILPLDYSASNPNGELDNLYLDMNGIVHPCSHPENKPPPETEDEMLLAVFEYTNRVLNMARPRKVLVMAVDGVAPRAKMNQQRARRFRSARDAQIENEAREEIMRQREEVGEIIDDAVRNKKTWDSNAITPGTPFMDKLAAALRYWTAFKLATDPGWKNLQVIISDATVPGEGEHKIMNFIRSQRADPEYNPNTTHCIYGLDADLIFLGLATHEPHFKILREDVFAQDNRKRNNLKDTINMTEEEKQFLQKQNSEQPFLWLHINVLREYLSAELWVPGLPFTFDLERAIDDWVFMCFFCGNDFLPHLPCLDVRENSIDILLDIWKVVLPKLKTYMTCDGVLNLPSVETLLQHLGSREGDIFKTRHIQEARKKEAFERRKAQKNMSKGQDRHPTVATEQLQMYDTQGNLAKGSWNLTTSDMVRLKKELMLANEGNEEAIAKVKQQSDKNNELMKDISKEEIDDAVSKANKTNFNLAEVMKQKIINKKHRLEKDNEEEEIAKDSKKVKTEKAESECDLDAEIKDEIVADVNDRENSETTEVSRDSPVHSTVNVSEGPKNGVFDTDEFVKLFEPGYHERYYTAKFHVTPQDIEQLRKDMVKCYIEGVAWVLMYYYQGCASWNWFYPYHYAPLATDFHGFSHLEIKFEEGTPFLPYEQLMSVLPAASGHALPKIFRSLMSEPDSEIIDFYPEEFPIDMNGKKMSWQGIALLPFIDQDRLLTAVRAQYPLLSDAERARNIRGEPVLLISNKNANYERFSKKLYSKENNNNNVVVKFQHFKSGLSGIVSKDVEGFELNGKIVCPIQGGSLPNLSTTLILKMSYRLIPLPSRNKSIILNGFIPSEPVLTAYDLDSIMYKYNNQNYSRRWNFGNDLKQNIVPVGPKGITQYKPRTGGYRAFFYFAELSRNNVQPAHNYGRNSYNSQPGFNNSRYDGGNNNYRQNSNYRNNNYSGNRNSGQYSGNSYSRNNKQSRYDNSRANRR

[2] = biological target: T2, ProteinA-Rio1 (S. cerevisiae) (UniProt Q12196); experiment: affinity purification with mass spectrometry; ProteinA-Rio1 expressed from PGAL1-10 (2% galactose, 2 h) in pep4∆ yeast; cleared lysate (50 mM Tris-Cl pH 7.5, 10% glycerol, 150 mM NaCl, 1 mM DTT, 0.4% NP-40) on rabbit IgG agarose beads overnight at 4 °C; washed with PBS-T; on-bead digestion …; untagged Rio1 as negative control; three independent purifications
T2 sequence: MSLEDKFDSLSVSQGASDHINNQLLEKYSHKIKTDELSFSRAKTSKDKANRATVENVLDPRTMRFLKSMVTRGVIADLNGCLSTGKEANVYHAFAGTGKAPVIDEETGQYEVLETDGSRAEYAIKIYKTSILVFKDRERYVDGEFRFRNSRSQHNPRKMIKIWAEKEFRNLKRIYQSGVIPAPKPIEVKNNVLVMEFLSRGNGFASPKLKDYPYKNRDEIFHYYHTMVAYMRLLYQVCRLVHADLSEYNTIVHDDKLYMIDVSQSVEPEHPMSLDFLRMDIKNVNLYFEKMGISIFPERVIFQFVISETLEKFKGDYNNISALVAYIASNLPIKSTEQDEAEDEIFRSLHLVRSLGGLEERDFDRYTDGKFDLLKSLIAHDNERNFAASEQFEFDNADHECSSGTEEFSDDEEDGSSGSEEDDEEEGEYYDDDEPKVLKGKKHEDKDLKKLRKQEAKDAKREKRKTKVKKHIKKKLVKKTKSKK

binding [1]: no binding
B1: Rio1 (enzyme, UniProt Q12196 1-484)
chain: T2 sequence

binding [1]: binds
binding [2]: binds
B2: Las1 (protein, UniProt P36146 1-502)
chain: MIPPRIVPWRDFAELEELKLWFYPKSKGTIEDKRQRAVQRVQSYRLKGSQYLPHVVDSTAQITCAVLLDEKEACLGVHQDSIPIRLSYVMALIRFVNGLLDPTQQSQFAIPLHTLAAKIGLPSWFVDLRHWGTHERDLPGLEMLRWAANEALSWLYDHYWNDEELEDDRDDDDDDDDTGYGYRRNDKLEKYMESLTKTLDKWKRLRNEFLEYKWVWENANDSLITSSNFSGDNLVNYDAEKRKSSHASSSETMIRENLRQWQELWKLSIYHNVVLEKFFNNYDPLLLKVLMLNLNNFDWKVIEWVARNYRTQQDDSNITTILKRKFNAWKELQKRLLDVIINNLNNKNFKNKWQNWEKLIDENASYLILYFCQSMLAKLETEKITGNSWRNKKRRKQIDSTVEIEAKLKENIDNLSLRFNEGEIKLYDFIPAEKDSVPLKKEVSPALKADTNDILGDLASLKQRMSSFGTVGKKNKQEENRATPVKNWSRVQNWKPKPFGVL

binding [1]: binds
binding [2]: binds
B3: Grc3 (protein, UniProt Q07845 1-632)
chain: MVIDSKQDLPQYTKDSGSESDSDSSNNFIVESPSIPSSKSATVVLNSEEYEDDEGDDLNGLDAELIDNITYEGDEDETMFVGLKEKQKLHLSGVFRLQVVKGGIVYNNVHYNASREILTFWHPLSQSIPTIDFSHFAGWQDTFFMPRNNRFKIRDEEFKSFPCVLRVFNSNHTGLLEAGHLYRDVNYLWKPKEPYFPLNERTTYHLLHESDRIQSLSVPGYWSTPLEKLYLSHKNAAYDTRIMVIGGKNSGKSTFLRLLLEKFTQDIRDSTTSQEELVYLDLDPGQPEYSLPDSISLNKILSSPISLGQHLCQGSNFQTLLQFYAGSSSPQDEPTSYLNCADKLIDHLEEQAFFGTSLLNLPGWIKGFGMQILNHIIRKYKPTHLLFLETANSKRHLDELTIPQSFSTSLRDAYAPEVVRVPAHSLNHTLSSRFHASQLRTFKILALFHKITQFDYDFAPLLKSAPLQISYGKGKSGIKGIQFPMEFQDLNPQDIKSALEGTVIGIYTYSGEDSLEVKSLNTFPILQSCTSSSKNFITLGLIHSIDTSQQIMNIYVPPCHTQILDKQPEDAQWIIVRNKTETPFCDFLPSPRTITWDDNIQIPFATFERRKKLEHVWKVRKNVMRRGQFMKR
